The record followed here is the supplement of paper PMC12819154, “High-throughput peptide-centric local stability assay extends protein–ligand identification to membrane proteins, tissues and bacteria” (Nature Structural & Molecular Biology, 2025).

Chains of the proteins cited; added tags and fusions are not shown. Lines headed by an entry give the natural chain unless they say otherwise; changes in a name come on top.
UniProt Q8CDN6: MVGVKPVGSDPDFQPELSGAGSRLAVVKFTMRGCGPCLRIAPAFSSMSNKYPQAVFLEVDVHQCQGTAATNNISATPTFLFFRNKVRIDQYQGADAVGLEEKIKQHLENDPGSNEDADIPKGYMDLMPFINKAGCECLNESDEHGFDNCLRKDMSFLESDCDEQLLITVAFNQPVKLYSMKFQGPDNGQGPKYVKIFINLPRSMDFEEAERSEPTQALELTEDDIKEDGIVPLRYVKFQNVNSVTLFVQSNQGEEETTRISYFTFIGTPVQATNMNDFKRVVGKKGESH
UniProt Q8BH00: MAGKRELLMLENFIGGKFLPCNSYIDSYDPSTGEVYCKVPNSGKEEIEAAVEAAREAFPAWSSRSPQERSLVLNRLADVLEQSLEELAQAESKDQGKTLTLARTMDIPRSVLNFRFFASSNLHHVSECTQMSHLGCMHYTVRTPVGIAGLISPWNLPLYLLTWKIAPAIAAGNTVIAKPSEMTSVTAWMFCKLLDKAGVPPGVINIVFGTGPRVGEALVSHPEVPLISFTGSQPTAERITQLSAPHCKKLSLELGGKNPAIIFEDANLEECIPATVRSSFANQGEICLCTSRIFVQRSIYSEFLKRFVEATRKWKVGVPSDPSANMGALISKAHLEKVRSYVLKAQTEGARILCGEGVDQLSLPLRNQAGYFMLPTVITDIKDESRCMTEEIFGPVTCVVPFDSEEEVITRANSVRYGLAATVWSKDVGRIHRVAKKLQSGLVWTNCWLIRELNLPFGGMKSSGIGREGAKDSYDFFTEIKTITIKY
UniProt Q8CF94: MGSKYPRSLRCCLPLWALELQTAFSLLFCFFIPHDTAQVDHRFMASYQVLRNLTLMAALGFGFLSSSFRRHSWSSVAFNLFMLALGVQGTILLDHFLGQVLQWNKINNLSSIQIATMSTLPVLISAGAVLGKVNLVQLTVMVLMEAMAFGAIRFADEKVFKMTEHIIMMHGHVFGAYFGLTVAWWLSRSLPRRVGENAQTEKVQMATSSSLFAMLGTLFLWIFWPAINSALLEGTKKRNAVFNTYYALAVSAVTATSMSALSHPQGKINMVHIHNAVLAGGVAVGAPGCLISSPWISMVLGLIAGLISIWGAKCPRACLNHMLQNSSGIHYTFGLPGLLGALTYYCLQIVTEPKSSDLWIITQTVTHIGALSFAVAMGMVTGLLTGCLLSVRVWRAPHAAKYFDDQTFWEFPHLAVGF
UniProt Q8C7E7: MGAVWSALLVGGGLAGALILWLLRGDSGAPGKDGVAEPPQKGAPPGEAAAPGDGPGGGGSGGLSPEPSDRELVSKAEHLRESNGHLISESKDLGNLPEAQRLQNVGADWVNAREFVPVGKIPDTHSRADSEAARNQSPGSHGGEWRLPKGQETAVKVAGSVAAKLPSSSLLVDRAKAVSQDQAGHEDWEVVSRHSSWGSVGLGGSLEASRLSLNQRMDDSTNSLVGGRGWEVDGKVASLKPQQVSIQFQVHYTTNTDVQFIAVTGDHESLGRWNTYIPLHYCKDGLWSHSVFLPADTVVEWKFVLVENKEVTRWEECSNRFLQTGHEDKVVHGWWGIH
UniProt Q8BSM7: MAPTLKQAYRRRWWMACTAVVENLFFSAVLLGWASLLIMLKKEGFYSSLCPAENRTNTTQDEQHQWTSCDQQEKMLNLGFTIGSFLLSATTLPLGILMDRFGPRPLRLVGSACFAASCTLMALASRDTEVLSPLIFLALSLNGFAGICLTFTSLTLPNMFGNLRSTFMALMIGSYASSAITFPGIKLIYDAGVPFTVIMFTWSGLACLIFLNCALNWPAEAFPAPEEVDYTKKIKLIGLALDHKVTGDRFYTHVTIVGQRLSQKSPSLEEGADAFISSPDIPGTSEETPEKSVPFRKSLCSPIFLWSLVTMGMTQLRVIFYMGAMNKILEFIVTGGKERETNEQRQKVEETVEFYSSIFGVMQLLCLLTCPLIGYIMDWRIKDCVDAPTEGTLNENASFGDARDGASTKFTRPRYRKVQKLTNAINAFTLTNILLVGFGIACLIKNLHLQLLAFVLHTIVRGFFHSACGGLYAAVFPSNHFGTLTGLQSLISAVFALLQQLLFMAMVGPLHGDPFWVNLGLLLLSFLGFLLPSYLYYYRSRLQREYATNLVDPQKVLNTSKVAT
UniProt Q8C165: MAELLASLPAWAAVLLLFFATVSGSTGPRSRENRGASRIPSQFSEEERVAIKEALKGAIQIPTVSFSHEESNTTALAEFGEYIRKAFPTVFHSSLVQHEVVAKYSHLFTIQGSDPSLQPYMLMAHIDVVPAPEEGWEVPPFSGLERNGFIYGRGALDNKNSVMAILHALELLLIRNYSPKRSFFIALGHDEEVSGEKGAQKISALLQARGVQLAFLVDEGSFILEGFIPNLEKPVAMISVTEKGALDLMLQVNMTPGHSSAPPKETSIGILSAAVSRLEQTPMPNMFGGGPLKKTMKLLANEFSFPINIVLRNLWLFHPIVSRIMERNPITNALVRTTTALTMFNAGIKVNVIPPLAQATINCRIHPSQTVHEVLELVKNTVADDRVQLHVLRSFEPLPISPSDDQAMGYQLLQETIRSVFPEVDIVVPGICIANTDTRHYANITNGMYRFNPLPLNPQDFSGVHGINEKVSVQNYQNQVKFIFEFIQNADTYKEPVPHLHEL
UniProt Q8CAY6: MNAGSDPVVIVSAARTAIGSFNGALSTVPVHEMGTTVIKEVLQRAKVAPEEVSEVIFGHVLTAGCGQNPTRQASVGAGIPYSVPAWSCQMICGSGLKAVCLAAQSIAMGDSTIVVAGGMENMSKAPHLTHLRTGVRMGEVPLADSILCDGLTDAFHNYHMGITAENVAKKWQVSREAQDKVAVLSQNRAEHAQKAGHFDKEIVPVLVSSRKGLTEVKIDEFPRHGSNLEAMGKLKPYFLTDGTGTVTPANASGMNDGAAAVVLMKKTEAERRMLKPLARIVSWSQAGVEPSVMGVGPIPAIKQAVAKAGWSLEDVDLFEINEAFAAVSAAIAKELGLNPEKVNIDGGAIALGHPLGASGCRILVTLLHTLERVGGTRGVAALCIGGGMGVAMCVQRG
UniProt Q8BH69: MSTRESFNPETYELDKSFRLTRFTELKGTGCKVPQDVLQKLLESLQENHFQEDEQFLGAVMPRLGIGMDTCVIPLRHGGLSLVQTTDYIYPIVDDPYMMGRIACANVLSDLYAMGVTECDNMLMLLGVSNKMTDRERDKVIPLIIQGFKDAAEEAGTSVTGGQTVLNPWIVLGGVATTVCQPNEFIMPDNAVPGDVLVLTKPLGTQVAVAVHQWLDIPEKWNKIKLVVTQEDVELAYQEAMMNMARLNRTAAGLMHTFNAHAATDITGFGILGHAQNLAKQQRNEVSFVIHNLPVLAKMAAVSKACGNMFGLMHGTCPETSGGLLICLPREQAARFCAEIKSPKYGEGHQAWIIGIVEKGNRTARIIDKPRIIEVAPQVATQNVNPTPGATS
UniProt Q8CG16: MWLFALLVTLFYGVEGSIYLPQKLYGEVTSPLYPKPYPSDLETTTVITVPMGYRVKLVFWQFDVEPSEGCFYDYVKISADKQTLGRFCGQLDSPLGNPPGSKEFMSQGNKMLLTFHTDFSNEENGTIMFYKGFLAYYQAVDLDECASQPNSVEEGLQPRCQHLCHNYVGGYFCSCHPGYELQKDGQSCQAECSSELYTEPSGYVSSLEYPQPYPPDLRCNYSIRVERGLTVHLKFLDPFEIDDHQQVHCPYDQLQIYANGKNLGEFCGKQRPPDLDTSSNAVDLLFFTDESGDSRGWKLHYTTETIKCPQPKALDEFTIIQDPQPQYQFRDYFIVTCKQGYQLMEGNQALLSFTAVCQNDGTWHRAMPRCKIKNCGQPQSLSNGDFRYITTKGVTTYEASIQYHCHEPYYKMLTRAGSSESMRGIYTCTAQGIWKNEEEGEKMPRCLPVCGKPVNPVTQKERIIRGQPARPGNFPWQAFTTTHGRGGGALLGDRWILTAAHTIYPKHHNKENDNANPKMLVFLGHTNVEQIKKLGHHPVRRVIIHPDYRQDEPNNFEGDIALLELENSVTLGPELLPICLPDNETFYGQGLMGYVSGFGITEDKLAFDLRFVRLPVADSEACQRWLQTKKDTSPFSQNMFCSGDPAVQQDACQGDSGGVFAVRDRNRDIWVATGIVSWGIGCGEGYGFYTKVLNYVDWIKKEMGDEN
UniProt Q8C0D4: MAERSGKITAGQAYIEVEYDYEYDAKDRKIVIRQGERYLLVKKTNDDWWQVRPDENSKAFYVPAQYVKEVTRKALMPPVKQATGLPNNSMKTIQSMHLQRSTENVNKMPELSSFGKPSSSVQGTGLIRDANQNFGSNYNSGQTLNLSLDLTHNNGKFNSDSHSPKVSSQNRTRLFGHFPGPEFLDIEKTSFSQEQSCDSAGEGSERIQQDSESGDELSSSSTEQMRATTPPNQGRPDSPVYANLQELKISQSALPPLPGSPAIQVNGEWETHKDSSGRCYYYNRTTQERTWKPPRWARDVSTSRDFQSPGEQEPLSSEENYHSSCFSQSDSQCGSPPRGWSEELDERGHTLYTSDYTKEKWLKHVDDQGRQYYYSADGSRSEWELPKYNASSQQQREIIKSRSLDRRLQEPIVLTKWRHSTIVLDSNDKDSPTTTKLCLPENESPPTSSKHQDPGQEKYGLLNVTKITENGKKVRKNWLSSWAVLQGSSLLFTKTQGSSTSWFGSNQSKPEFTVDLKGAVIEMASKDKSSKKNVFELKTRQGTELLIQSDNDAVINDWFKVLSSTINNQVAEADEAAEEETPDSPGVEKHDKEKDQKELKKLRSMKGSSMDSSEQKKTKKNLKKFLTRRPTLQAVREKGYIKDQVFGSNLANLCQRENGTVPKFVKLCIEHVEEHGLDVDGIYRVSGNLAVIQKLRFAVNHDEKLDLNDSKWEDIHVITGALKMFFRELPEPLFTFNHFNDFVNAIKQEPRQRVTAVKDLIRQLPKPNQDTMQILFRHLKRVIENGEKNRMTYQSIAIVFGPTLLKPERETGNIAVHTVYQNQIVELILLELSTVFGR
UniProt Q8BWR2: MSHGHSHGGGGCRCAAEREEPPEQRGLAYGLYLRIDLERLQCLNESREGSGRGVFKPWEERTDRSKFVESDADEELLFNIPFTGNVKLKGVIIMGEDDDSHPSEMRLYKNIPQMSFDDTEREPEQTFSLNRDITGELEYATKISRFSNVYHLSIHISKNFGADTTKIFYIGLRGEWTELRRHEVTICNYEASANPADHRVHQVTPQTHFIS
UniProt Q8BSD5: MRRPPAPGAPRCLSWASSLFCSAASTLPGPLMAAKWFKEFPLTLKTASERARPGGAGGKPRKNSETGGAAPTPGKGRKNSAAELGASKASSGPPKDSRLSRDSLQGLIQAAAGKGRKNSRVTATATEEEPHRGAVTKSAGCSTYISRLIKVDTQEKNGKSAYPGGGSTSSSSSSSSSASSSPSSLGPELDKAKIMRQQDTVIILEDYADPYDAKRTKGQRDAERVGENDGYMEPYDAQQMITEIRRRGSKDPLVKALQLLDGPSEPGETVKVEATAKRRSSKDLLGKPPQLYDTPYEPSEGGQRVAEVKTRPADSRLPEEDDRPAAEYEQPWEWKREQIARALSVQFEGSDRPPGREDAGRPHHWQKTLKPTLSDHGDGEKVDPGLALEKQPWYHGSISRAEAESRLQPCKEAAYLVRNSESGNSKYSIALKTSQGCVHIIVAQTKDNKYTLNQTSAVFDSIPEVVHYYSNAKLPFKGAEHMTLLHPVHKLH
UniProt Q8CAA7: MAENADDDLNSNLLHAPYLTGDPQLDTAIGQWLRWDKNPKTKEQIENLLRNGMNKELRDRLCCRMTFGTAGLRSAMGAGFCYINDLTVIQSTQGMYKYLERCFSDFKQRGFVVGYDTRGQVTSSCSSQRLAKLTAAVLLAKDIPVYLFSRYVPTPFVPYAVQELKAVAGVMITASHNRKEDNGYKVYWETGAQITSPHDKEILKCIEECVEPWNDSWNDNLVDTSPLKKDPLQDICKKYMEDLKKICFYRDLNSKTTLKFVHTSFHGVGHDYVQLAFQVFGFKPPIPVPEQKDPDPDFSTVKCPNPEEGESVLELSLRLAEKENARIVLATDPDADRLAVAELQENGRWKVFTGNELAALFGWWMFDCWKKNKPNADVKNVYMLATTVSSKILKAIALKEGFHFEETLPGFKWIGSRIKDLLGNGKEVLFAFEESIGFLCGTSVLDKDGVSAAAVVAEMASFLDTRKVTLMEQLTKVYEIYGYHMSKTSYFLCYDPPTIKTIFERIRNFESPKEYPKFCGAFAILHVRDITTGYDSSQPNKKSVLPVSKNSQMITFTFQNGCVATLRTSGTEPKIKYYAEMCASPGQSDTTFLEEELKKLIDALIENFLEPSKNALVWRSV
UniProt Q8BHC0: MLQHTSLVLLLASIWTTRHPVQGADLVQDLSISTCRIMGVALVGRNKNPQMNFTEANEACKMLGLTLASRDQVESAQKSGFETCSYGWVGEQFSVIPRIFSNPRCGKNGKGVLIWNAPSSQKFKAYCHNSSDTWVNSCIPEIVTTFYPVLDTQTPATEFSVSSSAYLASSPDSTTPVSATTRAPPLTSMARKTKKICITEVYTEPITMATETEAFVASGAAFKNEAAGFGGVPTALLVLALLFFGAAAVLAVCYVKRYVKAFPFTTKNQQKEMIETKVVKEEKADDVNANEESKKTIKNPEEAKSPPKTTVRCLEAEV

This is one part of the list. Small differences around the control level are noise.

Compound in the test: CN[C@@H]1C[C@H]2O[C@@](C)([C@@H]1OC)n1c3ccccc3c3c4c(c5c6ccccc6n2c5c31)C(=O)NC4 [staurosporine]
Nature of the test: log2 fold change of pooled soluble protein (PISA), ligand vs vehicle (log2 ratio); higher = more thermally stabilized. As to conditions: ligand concentration: 20 uM; assay format: PISA pool 52.9/55.5/58.6 C.
Turning to UniProt Q8BGT5, the “log2 fold change of pooled soluble protein” value (from here on “log2 fold change”) was determined as 0.0335.

Take UniProt Q8BXN7: the “log2 fold change” value is 0.0629.

On to UniProt Q8CFX1, for which the “log2 fold change” value was -0.0576.

As for UniProt Q8CDN6, the “log2 fold change” value was -0.0545.

As to UniProt Q8BH00, the “log2 fold change” value came to 0.0363.

Regarding UniProt Q8CF94, the “log2 fold change” value was 0.277.

Turning to UniProt Q8BYK6, the “log2 fold change” value is -0.00104.

For the target UniProt Q8C7E7, the “log2 fold change” value was -0.127.

For the target UniProt Q8C3X2, the “log2 fold change” value was -0.207.

Turning to UniProt Q8BZI6, the “log2 fold change” value was -0.0896.

In the case of UniProt Q8BHJ6, the “log2 fold change” value turned out to be 0.194.

As for UniProt Q8BSM7, the “log2 fold change” value came to 0.114.

As to UniProt Q8CB77, the “log2 fold change” value was -0.0693.

For UniProt Q8BWH0, the “log2 fold change” value was -0.0908.

For UniProt Q8BH97, the “log2 fold change” value came out at 0.0659.

Consider UniProt Q8C165, for which the “log2 fold change” value was -0.00242.

Q8C7Q4;Q8VE92: the “log2 fold change” value is -0.00992.

Consider UniProt Q8CAY6, for which the “log2 fold change” value is -0.0361.

For UniProt Q8BH69, the “log2 fold change” value is 0.0317.

For the target UniProt Q8BTV2, the “log2 fold change” value was -0.104.

Take UniProt Q8BGS7: the “log2 fold change” value was -0.755.

For UniProt Q8BZ09, the “log2 fold change” value amounted to 0.0733.

Regarding UniProt Q8BGY7, the “log2 fold change” value worked out at 0.0141.

As for UniProt Q8CG16, the “log2 fold change” value was -0.11.

Take UniProt Q8C0D4: the “log2 fold change” value amounted to 0.0872.

Turning to UniProt Q8BWR2, the “log2 fold change” value is -0.631.

In the case of UniProt Q8BSD5, the “log2 fold change” value turned out to be 0.0538.

In the case of UniProt Q8BUK6, the “log2 fold change” value was -0.048.

UniProt Q8BL66: the “log2 fold change” value was -0.0229.

On to UniProt Q8C2Q3, for which the “log2 fold change” value was determined as 0.0154.

Regarding UniProt Q8CAA7, the “log2 fold change” value was 0.0716.

UniProt Q8BMP6: the “log2 fold change” value was 0.107.

With UniProt Q8BTY2, the “log2 fold change” value worked out at 0.166.

Turning to UniProt Q8BHC0, the “log2 fold change” value came out at 0.147.

Turning to UniProt Q8BLF1, the “log2 fold change” value stood at 0.0904.

As for UniProt Q8BX09, the “log2 fold change” value stood at 0.0828.
